According to paper PMC7819943, “Rice protein-binding microarrays: a tool to detect cis-acting elements near promoter regions in rice”:
The list shows a part of the results.

Chains of the proteins cited; added tags and fusions are not shown.
UniProt Q0JBA9, entry or part of it: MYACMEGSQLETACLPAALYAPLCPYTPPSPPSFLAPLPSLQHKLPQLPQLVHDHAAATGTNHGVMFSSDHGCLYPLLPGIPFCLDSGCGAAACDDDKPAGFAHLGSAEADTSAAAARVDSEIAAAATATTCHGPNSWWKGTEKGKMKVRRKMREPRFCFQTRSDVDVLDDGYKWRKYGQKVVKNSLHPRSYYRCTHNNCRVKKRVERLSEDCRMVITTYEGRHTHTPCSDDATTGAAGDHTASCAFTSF

target: OsWRKY34 (Oryza sativa, UniProt Q0JBA9 1-250); experiment: protein-binding microarray (RPBM); PBS, 2% BSA, 51.3 ng/ul salmon testes DNA, 50 uM zinc acetate, 200 nM TF, 25 C, 1 h; high values mean tight binding; conditions: protein: recombinant; tags: N-terminal polyhistidine and DsRed monomer fusion (pET32a); label: CyDye5-dUTP incorporated in the synthesized complementary strand; 3' TTTTT single-stranded linker to array surface; dsDNA, one strand shown
In short: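 Transcription factors, each fused N-terminally to a polyhistidine tag and DsRed, were expressed in E. coli BL21-CodonPlus and purified on Ni–NTA. A custom Agilent array was made double-stranded by primer extension with Cy5-dUTP and blocked with 2% BSA. It was incubated with 200 nM protein in PBS, 2% BSA, salmon testes DNA and 50 µM zinc acetate at 25 °C for 1 h, then washed. The binding signal is per-feature fluorescence intensity (arbitrary units) read on an Axon 4000B scanner.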

| Sequence | binding signal |
| --- | --- |
| AGCTACACAATTTGAAACATACACGCAATCCTTTGTCTCACGGAGTCACCTAGTGCAG | 9840 fluorescence intensity (a.u.) |
| GTTGGTGGTAGTGGATGGTGTTTCTTTTTTATTCCATTTGCGGAGTCACCTAGTGCAG | 12200 fluorescence intensity (a.u.) |
| GCATTTTCTGTCCGTATCCAAGTCGTTTTCTGCGTAAGCACGGAGTCACCTAGTGCAG | 8760 fluorescence intensity (a.u.) |
| TCTCCCGTTGTCTTGTCTTCTCTTCGCACCCTAAGATTTCCGGAGTCACCTAGTGCAG | 13900 fluorescence intensity (a.u.) |
| TCTCTAATCTATTGCCTCGTTTTTCTCTATAGACTATCTCCGGAGTCACCTAGTGCAG | 9650 fluorescence intensity (a.u.) |
| TCCTCCAATTCAAATGGCCCTTATATAGTTGTAGAATCTTCGGAGTCACCTAGTGCAG | 8050 fluorescence intensity (a.u.) |
| AACTTGGTGTATGCACAATCACACACCTTGCCATCTAATTCGGAGTCACCTAGTGCAG | 8720 fluorescence intensity (a.u.) |
| ACTTGTCCTTGATCCTGCCCCACTTCGGATTGTCAATCGACGGAGTCACCTAGTGCAG | 8730 fluorescence intensity (a.u.) |
| TATTTTTAAAAAAGTCAACGGCGTCTTGTGGGATGGAGGGCGGAGTCACCTAGTGCAG | 21300 fluorescence intensity (a.u.) |
| TATTGCTAACGTACATGCACCCAATTTTGGTCATTACTATCGGAGTCACCTAGTGCAG | 8340 fluorescence intensity (a.u.) |
| ATTAAAAAGTCAACGGTGTCAAACATTTTGAAATGGAGGGCGGAGTCACCTAGTGCAG | 10300 fluorescence intensity (a.u.) |
| GTTGTATGTATCACAGCTCTTTCATAACTCGTACCATTTTCGGAGTCACCTAGTGCAG | 11700 fluorescence intensity (a.u.) |
| CTACGCTTTCCCACTTCTACTCGCTCTAACTTCTACTCGACGGAGTCACCTAGTGCAG | 10700 fluorescence intensity (a.u.) |
| GGACCCACCCGGCCATCCACGTGACTAGTTGTACATTTTCCGGAGTCACCTAGTGCAG | 14200 fluorescence intensity (a.u.) |
| GTTAGTGGTTGATGGTAGTATGAGGAGTTTGTTGTTAACACGGAGTCACCTAGTGCAG | 8670 fluorescence intensity (a.u.) |
| TAAGTTTTTGTTTGCCACGTTTAACCACTCGTCTTATTCACGGAGTCACCTAGTGCAG | 14600 fluorescence intensity (a.u.) |
| CCTTCTGTCTCCACCCTCATCCAGCGATCCAAAGCCCAACCGGAGTCACCTAGTGCAG | 8820 fluorescence intensity (a.u.) |
| CTTATCTCATTTTATCTCGGTTTTTGTTAACTTGTTTTTTCGGAGTCACCTAGTGCAG | 18200 fluorescence intensity (a.u.) |
| ACTTTATAAAGGGTCCCACAGTGTTTCCCATCTCCTCTGTCGGAGTCACCTAGTGCAG | 8210 fluorescence intensity (a.u.) |
| AATATGGACTGCATGTGTTTGTGATCCCTTTCTTCTCATGCGGAGTCACCTAGTGCAG | 9200 fluorescence intensity (a.u.) |
| ATCGTCCCCAAATACATTTCACCGATTTGACTTGAATACACGGAGTCACCTAGTGCAG | 8080 fluorescence intensity (a.u.) |
| TTTCCCGAAATTTCGCTTCTATCCGATTTTTTTTCGCAATCGGAGTCACCTAGTGCAG | 10900 fluorescence intensity (a.u.) |
| GCCTTCCGCGCCCGCTTCCGCGCAACCCACCGGGCGCCATCGGAGTCACCTAGTGCAG | 8610 fluorescence intensity (a.u.) |

An excerpt of the results above, for reference:

| Sequence | binding signal |
| --- | --- |
| GTTGTATGTATCACAGCTCTTTCATAACTCGTACCATTTTCGGAGTCACCTAGTGCAG | 11700 fluorescence intensity (a.u.) |
| CTACGCTTTCCCACTTCTACTCGCTCTAACTTCTACTCGACGGAGTCACCTAGTGCAG | 10700 fluorescence intensity (a.u.) |
